Results taken from paper PMC4022642.

Molecular target: T1, TRESK-loop-His8 (amino acids 185-292 of mouse TRESK) (mouse) (UniProt Q6VV64)
T1 sequence: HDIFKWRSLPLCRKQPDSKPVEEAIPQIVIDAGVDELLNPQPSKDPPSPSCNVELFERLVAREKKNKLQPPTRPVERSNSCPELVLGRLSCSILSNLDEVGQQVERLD
Experiment: affinity purification with mass spectrometry; TRESK-loop-His8 (plain or PKA-phosphorylated) on a 1 ml Ni-NTA column; mouse brain cytosol first passed over a control Ni-NTA column; 50 mM to 2 M NaCl gradient, then elution with 7 M urea; SDS-PAGE, Coomassie, bands identified by mass spectrometry; only the target purified

Substance: tubulin (mouse brain cytosol) (complex)
- binding: binds

No constants are given. Whether binding was seen depends on the method and setting. Binding seen in cells or lysates may run through a third protein. A yes stands for co-enrichment or nearness to the bait. Other partners may have been found. Sequences can lack the tags named with a protein.
